Results published in patent US8592178B2, “Process for the preparation of testosterone” (F.I.S. Fabbrica Italiana Sintetici S.p.A., priority 2009, dated 2013).
At least one read-out could not be matched to a standard name with certainty.

Test: Stability study of the enzyme (activity as a function of time at room temperature)
Type: physicochemical
Settings: in water at room temperature
Procedure: A study to verify the stability in water of the purified recombinant murine enzyme Type V 17β-hydroxysteroid dehydrogenase of the invention was carried out. […] It can be seen that the enzyme is sufficiently stable to allow industrial biocatalysis as it is still active even after 15 days (Half-life).

B1: recombinant murine type V 17β-hydroxysteroid dehydrogenase enzyme: Purified recombinant murine type V 17β-hydroxysteroid dehydrogenase with N-terminal His-tag tail, SEQ ID n. 2, expressed in E. coli (protein)
chain: MGSSHHHHHHSSGLVPRGSHMDSKQQTVRLSDGHFIPILGFGTYAPQEVPKSKATEATKIAIDAGFRHIDSASMYQNEKEVGLAIRSKIADGTVKREDIFYTSKVWCTFHRPELVRVCLEQSLKQLQLDYVDLYLIHFPMAMKPGENYLPKDENGKLIYDAVDICDTWEAMEKCKDAGLAKSIGVSNFNRRQLEKILKKPGLKYKPVCNQVECHPYLNQGKLLDFCRSKDIVLVAYSALGSHREKQWVDQSSPVLLDNPVLGSMAKKYNRTPALIALRYQLQRGVVVLAKSFSEKRIKENMQVFEFQLTSEDMKVLDDLNKNIRYISGSSFKDHPDFPFWDEY
modifications: N-terminal His-tag; modified 17-beta-deidrogenase
notes: 2, expressed in E. coli
Half-life (enzyme still active): 15 days
